Assay results reported in paper PMC5323126.
Results are given in words; binding and its absence hold for the method and conditions named. In cells and extracts the contact can be indirect. Some entries that bind do so weakly or less than the wild type. For part of these data: Where a sequence is shown, tags or fusion partners need not be part of it. Values belong to the molecule of their own block, whether it stands above or below them.

By UniProt entry, the sequences of proteins in these tests, tags left out.
UniProt Q14258: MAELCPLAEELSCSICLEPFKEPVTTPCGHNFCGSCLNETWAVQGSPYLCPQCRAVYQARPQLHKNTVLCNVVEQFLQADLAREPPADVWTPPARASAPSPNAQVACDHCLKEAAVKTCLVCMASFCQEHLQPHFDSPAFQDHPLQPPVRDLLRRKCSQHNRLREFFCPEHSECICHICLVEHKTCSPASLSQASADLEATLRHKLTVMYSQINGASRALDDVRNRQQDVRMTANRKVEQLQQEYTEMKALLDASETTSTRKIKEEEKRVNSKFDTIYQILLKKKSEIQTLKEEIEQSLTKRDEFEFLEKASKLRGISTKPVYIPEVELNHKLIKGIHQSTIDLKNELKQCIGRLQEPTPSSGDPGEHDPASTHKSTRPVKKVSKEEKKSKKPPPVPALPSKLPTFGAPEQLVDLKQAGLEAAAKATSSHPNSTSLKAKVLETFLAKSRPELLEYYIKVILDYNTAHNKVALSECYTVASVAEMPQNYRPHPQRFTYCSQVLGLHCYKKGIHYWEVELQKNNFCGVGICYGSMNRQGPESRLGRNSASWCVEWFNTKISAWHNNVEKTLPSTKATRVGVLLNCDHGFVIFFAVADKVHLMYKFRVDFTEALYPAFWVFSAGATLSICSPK

Key:
[1] = target: T1, ERG-ΔN99 (N-terminally truncated ERG lacking 99 amino acids) (UniProt P11308); test: co-IP; Figure 2A: TRIM25 with ERG-FL, ERG-ΔN39 and ERG-ΔN99; cells, tags and antibody not told for this panel
T1 sequence: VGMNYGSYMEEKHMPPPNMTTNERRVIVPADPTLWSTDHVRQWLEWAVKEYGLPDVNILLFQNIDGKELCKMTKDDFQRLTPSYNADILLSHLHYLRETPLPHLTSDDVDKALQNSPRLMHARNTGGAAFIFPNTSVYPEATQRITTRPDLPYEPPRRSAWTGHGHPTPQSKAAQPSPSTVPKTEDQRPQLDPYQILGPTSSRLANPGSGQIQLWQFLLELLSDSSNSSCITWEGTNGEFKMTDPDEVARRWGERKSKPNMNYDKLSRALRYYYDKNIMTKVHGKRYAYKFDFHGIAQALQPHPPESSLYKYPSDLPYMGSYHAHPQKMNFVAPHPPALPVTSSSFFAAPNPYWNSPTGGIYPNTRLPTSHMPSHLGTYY

[2] = target: T2, ERG-V5 (full-length Ets related gene protein, V5-tagged) (UniProt P11308); test: as above
T2 sequence: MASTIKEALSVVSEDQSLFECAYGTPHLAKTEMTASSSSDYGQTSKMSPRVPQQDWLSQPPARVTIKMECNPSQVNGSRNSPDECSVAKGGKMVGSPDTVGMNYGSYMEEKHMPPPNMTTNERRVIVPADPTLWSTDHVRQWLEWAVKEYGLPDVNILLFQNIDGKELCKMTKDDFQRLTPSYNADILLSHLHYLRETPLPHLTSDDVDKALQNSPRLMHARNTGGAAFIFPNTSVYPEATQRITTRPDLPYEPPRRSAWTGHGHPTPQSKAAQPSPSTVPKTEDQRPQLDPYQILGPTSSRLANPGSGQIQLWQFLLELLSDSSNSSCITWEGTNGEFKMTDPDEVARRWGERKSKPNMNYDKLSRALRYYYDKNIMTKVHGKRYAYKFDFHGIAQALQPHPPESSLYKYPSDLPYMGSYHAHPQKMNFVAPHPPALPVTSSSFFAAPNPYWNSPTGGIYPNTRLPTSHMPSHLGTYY

[3] = target: T3, ERG-ΔN39 (N-terminally truncated ERG lacking 39 amino acids) (UniProt P11308); test: as above
T3 sequence: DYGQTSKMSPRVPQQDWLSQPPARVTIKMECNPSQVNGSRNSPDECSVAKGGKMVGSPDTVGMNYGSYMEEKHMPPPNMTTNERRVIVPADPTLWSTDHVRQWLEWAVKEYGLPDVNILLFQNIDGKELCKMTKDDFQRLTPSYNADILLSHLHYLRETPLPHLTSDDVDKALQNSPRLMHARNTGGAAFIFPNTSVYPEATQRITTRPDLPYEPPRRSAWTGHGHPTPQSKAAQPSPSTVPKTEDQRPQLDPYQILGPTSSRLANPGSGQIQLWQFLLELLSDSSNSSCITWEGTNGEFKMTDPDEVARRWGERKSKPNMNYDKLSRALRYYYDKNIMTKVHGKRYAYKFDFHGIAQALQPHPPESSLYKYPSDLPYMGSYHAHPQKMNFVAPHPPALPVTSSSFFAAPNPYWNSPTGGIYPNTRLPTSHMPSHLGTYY

GST-ERG = target: T4, GST-ERG (UniProt P11308); test: pull-down; GST-ERG or GST-tagged CAD domain of ERG as bait; whole VCaP cell extract; endogenous TRIM25 detected; only the target purified
T4 sequence: T2 sequence

[4] = target: T2, ERG-V5 (full-length Ets related gene protein, V5-tagged); test: co-IP; V5-tagged ERG variants ectopically expressed in HEK293T; endogenous TRIM25 co-immunoprecipitated with an antibody against V5
[5] = target: TRIM25-Flag (full-length) (UniProt Q14258); test: co-IP; Flag-tagged TRIM25 variants and full-length ERG-HA ectopically expressed in HEK293T

Molecule: Tripartite motif-containing protein 25 (TRIM25), endogenous in VCaP cells (from UniProt Q14258 1-630)
- binding (GST-ERG): binds

B1: ERG-HA (full-length HA-tagged ERG) (protein, UniProt P11308 1-479)
chain: T2 sequence
- binding [5]: binds

Results, then the molecule that gave them:

- binding [1]: binds
- binding [2]: binds
- binding [3]: binds
Molecule: TRIM25 as in the co-immunoprecipitation of Figure 2A (from UniProt Q14258 1-630)

- binding [4]: binds
Molecule: TRIM25, endogenous in HEK293T cells (from UniProt Q14258 1-630)
